Assay results reported in PubChem BioAssay AID1347076 (National Center for Advancing Translational Sciences (NCATS), 2019).
The campaign covered roughly 400,000 compounds. About 13,000 (3.2%) were called active. Inconclusive results, whose numbers are uncertain, are shown with a selection of clear calls. The call rests on the fitted dose curve; in most records, active means well fitted cell-killing curve with a large enough effect; inconclusive means small, poorly fitted or top-dose-only effect, or effect the other way; inactive means flat fitted curve, though single readings scatter. Potencies of inconclusive entries are doubtful fits and often do not repeat.

Assay: qHTS assay for MDR1-selective chemotherapeutics: Primary screen using the drug-selected MDR subline cells KB-V1; further: nearly all actives have a fitted effect of over 60% in size
Settings: KB-V1 MDR cells viability, CellTiter-Glo, 72 h; series mostly up to 46.1 µM
Summary of the method: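 In this primary screen, KB-V1 cells overexpressing P-gp are incubated with library compounds (lowest to highest concentration) for 72 h at 37 degrees C before a luminescent ATP viability read.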
Potency means the concentration at half of the fitted maximal effect.

| Compound | Potency |
| --- | --- |
| C/C(=N\NC(=S)Nc1cc(S(=O)(=O)N2CCOCC2)ccc1Cl)c1ccccc1F | active: 3.66 µM |
| COc1ccc(O)c(C2Nc3ccccc3-n3c(-c4ccccc4)c4c(=O)n(C)c(=O)n(C)c4c32)c1 (stereo unspecified) | inconclusive: 14.6 µM [cytotoxic, partial curve] |
| Cc1ccc(C(=O)OCC(=O)NC2CCCC2)cc1C | inactive |
| CCN1/C(=C2\C(=O)N(C)C(=S)N2C)C=Cc2cc(C)ccc21 | inconclusive: 29.1 µM [cytotoxic, single point] |
| Cc1ccc(NC2=CC(=O)CC(C)(C)C2)cc1C | active: 16.4 µM |
| COc1ccc(CN(CCC(c2ccccc2)c2ccc(OC(C)C)cc2)C(=O)CCl)cc1OC (stereo unspecified) | active: 8.2 µM |
| O=C(NC1CCc2ccccc21)c1cc(COc2cncc(Cl)c2)on1 (stereo unspecified) | inactive |
| CCOc1ccccc1N1C(=O)CC(Sc2n[nH]c(-c3ccccc3)n2)C1=O (stereo unspecified) | inactive |
| Cc1cccc(/C(N)=N/OC(=O)c2ccc3c(c2)OCO3)c1 | inconclusive: 18.4 µM [rising, partial curve, poor fit] |
| Cc1ccc(C(C)(C)C)cc1S(=O)(=O)Nc1nc2ccccc2nc1Cl | inactive |
| Cn1c(=O)[nH]c(=O)c2c1nc(CN(Cc1ccccc1)Cc1ccccc1)n2CCN1CCOCC1 | active: 6.51 µM |
| O=C(NCc1ccccn1)NC12CC3CC(CC(C3)C1)C2 | inconclusive: 32.6 µM [cytotoxic, single point] |
| CC(=O)NCCn1c(SCC(=O)c2ccc(Cl)cc2)nc2ccccc2c1=O | inconclusive: 2.31 µM [cytotoxic, full curve] |
| CCOc1ccc(OCCSc2nc(N)cc(=O)[nH]2)cc1 | inactive |
| CCCn1nnc(NC(=O)Cc2ccc(Cl)cc2)n1 | inactive |
| CC1CCN(Cc2ccc(NC(=O)C3CCN(c4nnc(-n5cccc5)s4)CC3)cc2)CC1 | inactive |
| CCCN(CC(=O)NC(=O)NC1CCCCC1)CC(=O)Nc1cc(Cl)ccc1Cl | active: 4.11 µM |
| O=C1NC2c3c(Cl)sc(Cl)c3C(=O)C2O1 (stereo unspecified) | inconclusive: 23.1 µM [cytotoxic, single point] |
| Cc1cc(S(=O)(=O)NCc2ccccc2)ccc1OCC(=O)NCc1ccccn1 | inconclusive: 9.2 µM [cytotoxic, partial curve, poor fit] |
| CCN(CC)C(=O)c1sc2c(c1C)c(=O)n(-c1ccc(C)c(C)c1)c(=O)n2Cc1cc(=O)n2c(C)cccc2n1 | inconclusive: 20.6 µM [cytotoxic, partial curve, poor fit] |
| CC(C)CC(NC(=O)C(CC(C)C)NC(=O)OC(C)(C)C)C(=O)O (stereo unspecified) | inconclusive: 29.1 µM [rising, single point] |
| Cc1ccc(Cl)cc1NC(=O)COCc1cc(-c2ccco2)on1 | inactive |
| CCCCSCCCNC(=O)CN1C(=O)COc2ccc(S(=O)(=O)N3CCC(C)CC3)cc21 | inconclusive: 6.51 µM [cytotoxic, full curve] |
| Cc1ccccc1NC(=S)N1CCN(c2ccccc2)CC1 | inconclusive: 29.1 µM [rising, single point] |

| Compound | Potency |
| --- | --- |
| Cc1cc2ncc(-c3cccc(Cl)c3)cn2n1 | inactive |
| O=C(NC1CCCCCC1)C1c2ccccc2C(=O)N1CCCN1CCOCC1 (stereo unspecified) | inconclusive: 9.2 µM [cytotoxic, partial curve] |
| O=C(CN1CCN(S(=O)(=O)c2ccccc2)CC1)NC(=O)NCc1ccco1 | inactive |
| CCOC(=O)c1[nH]c(C)c(C(=O)OCc2c(C)noc2C)c1C | inconclusive: 29.1 µM [cytotoxic, single point] |
| O=C1CCC/C(=N\NC(=O)COc2ccc(Cl)cc2)C1 | inconclusive: 20.6 µM [rising, single point] |
| CCCC(c1nnnn1Cc1ccco1)N1CCN(c2cc(Cl)ccc2C)CC1 (stereo unspecified) | inconclusive: 12.6 µM [cytotoxic, single point] |
| C[C@H]1CN([C@@H](C)CO)C(=O)CCCn2nncc2CO[C@H]1CN(C)C(=O)C1CC1 | inactive |
| CCC(C)[C@H](NC(=O)Nc1cccc(Br)c1)C(=O)OC (stereo partly specified) | inconclusive: 29.1 µM [rising, single point] |
| Cc1nn(CC#N)c(=O)n1-c1cccc(F)c1 | inactive |
| CCCC(C)NC(=S)Nc1cc(C)cc(C)c1 (stereo unspecified) | inactive |
| Cc1ccc(-c2cc(C(=O)N3CC4(C)CC3CC(C)(C)C4)no2)cc1 (stereo unspecified) | inactive |
| C[C@H](CO)N1C[C@H](C)[C@@H](CN(C)S(=O)(=O)c2ccc3c(c2)OCCCO3)OCc2cnnn2CCCC1=O | inconclusive: 0.517 µM [rising, full curve] |
| Cc1ccccc1/C=N/NC(=O)Cn1nnc(N)n1 | inconclusive: 1.84 µM [rising, full curve] |
| CCn1cc(CNC(=O)CCSc2nc(-c3ccco3)cc(C(F)(F)F)n2)cn1 | active: 4.61 µM |
| CC1(c2ccc(OC(F)F)cc2)NC(=O)N(CC(=O)N2CCN(C(=O)c3ccco3)CC2)C1=O (stereo unspecified) | inconclusive: 11.6 µM [rising, partial curve, poor fit] |
| COc1cccc(/C=C/C(=O)c2ccc(NC3=NCCCS3)cc2)c1 | inconclusive: 20.6 µM [cytotoxic, single point] |
| CCN(CC)S(=O)(=O)c1ccc2c(c1)N(CC(=O)N(C)Cc1ccccc1)C(=O)CO2 | inactive |
| O=C(CC(=O)c1ccccc1O)c1cccc(F)c1 | inconclusive: 23.1 µM [cytotoxic, partial curve, poor fit] |
| O=S(=O)(c1cnc(Cl)c(Br)c1)N1CCN(c2ncccn2)CC1 | inactive |
| O=C(COc1ccc(C(=O)c2ccccc2)cc1)Nc1ncccc1O | inconclusive: 0.0082 µM [rising, full curve, poor fit] |
| COc1ccccc1N1CCN(c2ncnc3c2nc2n3CCCC2)CC1 | inconclusive: 23.1 µM [cytotoxic, single point] |
| Cc1ccsc1/C=C1\CCC(C2CCCC2)C1=O (stereo unspecified) | inactive |
| COC(=O)c1ccc2nc(-c3ccc(Cl)cc3)c(Cc3ccccc3OC)n2c1 | inactive |
| CS(=O)(=O)c1ccc(N2CCOCC2)c(S(C)(=O)=O)c1 | inconclusive: 12.6 µM [rising, partial curve] |

A draw from above in order of molar mass, rising:

| Compound | Potency |
| --- | --- |
| Cc1ccccc1NC(=S)N1CCN(c2ccccc2)CC1 | inconclusive: 29.1 µM [rising, single point] |
| CS(=O)(=O)c1ccc(N2CCOCC2)c(S(C)(=O)=O)c1 | inconclusive: 12.6 µM [rising, partial curve] |
| C/C(=N\NC(=S)Nc1cc(S(=O)(=O)N2CCOCC2)ccc1Cl)c1ccccc1F | active: 3.66 µM |
| CC1(c2ccc(OC(F)F)cc2)NC(=O)N(CC(=O)N2CCN(C(=O)c3ccco3)CC2)C1=O (stereo unspecified) | inconclusive: 11.6 µM [rising, partial curve, poor fit] |
| CCN(CC)C(=O)c1sc2c(c1C)c(=O)n(-c1ccc(C)c(C)c1)c(=O)n2Cc1cc(=O)n2c(C)cccc2n1 | inconclusive: 20.6 µM [cytotoxic, partial curve, poor fit] |

(listing goes on)

| Compound | Potency |
| --- | --- |
| COc1ccc(-c2[nH]c3c(c2-c2c(-n4cccc4)n(C)c(=O)n(C)c2=O)c(=O)n(C)c(=O)n3C)cc1 | inconclusive: 13 µM [rising, partial curve, poor fit] |
| Cn1cccc1/C=C1\SC(=Nc2ccccc2)NC1=O | active: 2.59 µM |
| Cc1ccc(N(C(=O)CNC(=O)c2ccco2)C(C(=O)NC2CCCCC2)c2cccnc2)cc1 (stereo unspecified) | inconclusive: 16.4 µM [rising, partial curve, poor fit] |
| O=C(CNC(=O)c1ccc(Cl)cc1)OCc1cc(=O)n2ccsc2n1 | inactive |
| CCCn1c(N)c(N2CCCCC2)c(=O)n(CC(=O)Nc2cccc(S(=O)(=O)N(C)C)c2)c1=O | inconclusive: 25.9 µM [rising, partial curve, poor fit] |
| CC(C)C(=O)NC(=S)Nc1ccc(S(=O)(=O)N(C)Cc2ccccc2)cc1 | inconclusive: 29.1 µM [cytotoxic, single point] |
| O=c1[nH]c(-c2ccccc2)nc2sc(-c3ccccc3)cc12 | inconclusive: 3.66 µM [cytotoxic, full curve] |
| Cc1ccc(C(=O)NC(=S)Nc2ccc(CN3CCCCC3)cc2)c(C)c1 | inactive |
| O=C(CCOc1ccccc1)Nc1ccnn1C1CCN(Cc2ccc(F)cc2)CC1 | inconclusive: 9.2 µM [cytotoxic, partial curve] |
| Cc1ccc(-c2noc(CCC(=O)NCCN3CCN(Cc4ccccc4)CC3)n2)cc1 | active: 16.4 µM |
| CCOc1ccc(CN(C)CC(=O)Nc2cccc3ccccc23)cc1OC | inconclusive: 4.11 µM [cytotoxic, full curve] |
| CCCS(=O)(=O)N1CCC(CCOc2ccccc2)(C(=O)OCC)CC1 | inconclusive: 14.6 µM [cytotoxic, partial curve] |
| Cc1ccc(N(CC(=O)Nc2ccc(Br)c(C)c2)S(=O)(=O)c2c(C)[nH]c(=O)[nH]c2=O)cc1 | inactive |
| COc1ccc(/C=C2/CCCc3ccccc3C2=O)cc1 | inconclusive: 1.3 µM [cytotoxic, full curve, poor fit] |
| S=C(Nc1ccc(OCc2ccccc2)cc1)Nc1cccc(Cl)c1Cl | inconclusive: 29.1 µM [cytotoxic, single point] |
| CC1CCN(C(=O)N[C@@H](Cc2ccccc2)C(=O)O)CC1 | inconclusive: 20.6 µM [rising, single point] |
| CC(C)CCn1c(S(=O)(=O)O)nc2ccccc21 | inconclusive: 25.9 µM [rising, partial curve, poor fit] |
| O=C(c1ccccc1)N1CCCCC1 | inconclusive: 8.2 µM [rising, partial curve, poor fit] |
| Cc1cc(C)c2c(n1)SCCN2C(=O)Nc1ccc(C(=O)Nc2cc(Cl)ccc2C)cc1 | inactive |
| O=C(Nc1ccc(F)cc1)c1nn(-c2ccccc2)c(=O)cc1Cl | inconclusive: 18.4 µM [cytotoxic, single point] |
| COc1ccc(NC(=O)C2=CC(c3ccc(OC)c(OC)c3)=NS(=O)(=O)N2C)cc1 | inconclusive: 25.9 µM [cytotoxic, single point] |
| O=C(C1CCCN(S(=O)(=O)c2cccc3cccnc23)C1)N1CCc2ccccc21 (stereo unspecified) | inconclusive: 29.1 µM [cytotoxic, single point] |
| O=C1C2C(C(=O)N1/N=C/c1ccc(N3CCCCC3)o1)C1C=CC2C12CC2 (stereo unspecified) | inconclusive: 20.6 µM [cytotoxic, single point] |
